Laboratory results as given in publication PMC5085249, “The Diguanylate Cyclase HsbD Intersects with the HptB Regulatory Cascade to Control Pseudomonas aeruginosa Biofilm and Motility” (PLoS Genetics, 2016).
No constants are given. Whether binding was seen depends on the method and setting. Binding calls can cover weak binding; strength is not graded here.

By UniProt entry, the sequences of proteins in these tests, tags left out. Where a name states a change or a piece, a line headed by the entry shows the natural chain unless it says otherwise.
UniProt Q9HYP8: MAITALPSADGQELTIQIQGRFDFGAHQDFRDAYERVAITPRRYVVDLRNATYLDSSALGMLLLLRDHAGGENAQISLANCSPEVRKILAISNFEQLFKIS

Target: cytoplasmic DGC domain of HsbD (HsbDs), bacterial two-hybrid fusion (Pseudomonas aeruginosa) (UniProt Q9HYQ2)
Assay: two-hybrid; bacterial two-hybrid (adenylate cyclase reconstitution) in E. coli DHM1, pKT25 and pUT18C fusions; blue colonies on LB X-gal IPTG plates after 24 h at 30°C, quantified by β-galactosidase assays

| Substance | binding |
| --- | --- |
| anti-anti-sigma factor HsbA, bacterial two-hybrid fusion (from UniProt Q9HYP8) | binds |
| HptB, bacterial two-hybrid fusion (from UniProt Q9HYQ0) | binds weakly |
